Results: patent publication US20240156870A1 (NATIONAL RESEARCH COUNCIL OF CANADA, published 2024)
No constants are given. Whether binding was seen depends on the method and setting. Some binding calls cover weakened binding; strength is not graded here.

Experiments:
[1] = biological target: T1, human EGFR-Fc fusion protein (human, UniProt P00533 25-645); experiment: SPR, single-cycle kinetics (Biacore T200): VHH monomer, rising concentrations within 0.6-50 nM, over amine-coupled human EGFR-Fc [panel A]
T1 construct: Bought; not shown: Fc part of the bought fusion

[2] = biological target: T2, human EGFR, native, on the cell surface (human, UniProt P00533 25-1210); experiment: flow cytometry on EGFR-positive MDA-MB-468 cells, VHH monomer 20 µg/ml, anti-c-Myc and labelled anti-mouse antibodies
T2 construct: MCF7 is EGFR-low and serves as low-expression control; also called native cell-surface EGFR

[3] = biological target: T1, human EGFR-Fc fusion protein; experiment: sandwich ELISA: streptavidin-captured biotinylated VHH, human EGFR-Fc 500 ng/ml in solution, anti-human IgG-HRP [panel C]
[4] = biological target: T2, human EGFR, native, on the cell surface; experiment: cytometry on EGFR-positive tumor cells
[5] = biological target: T1, human EGFR-Fc fusion protein; experiment: SPR and ELISA on EGFR-Fc of three species
[6] = biological target: T3, mouse EGFR-Fc fusion protein (mouse, UniProt Q01279 25-647); experiment: SPR and ELISA on EGFR-Fc of three species
T3 construct: Bought; not shown: Fc part of the bought fusion

[7] = biological target: rhesus EGFR-Fc fusion protein (rhesus) (UniProt P55245); experiment: SPR and ELISA on EGFR-Fc of three species
[8] = biological target: T1, human EGFR-Fc fusion protein; experiment: ELISA, VHH titrated from about 0.5 to 1000 ng/mL, OD 450 nm
[9] = biological target: T3, mouse EGFR-Fc fusion protein; experiment: as above
[10] = biological target: rhesus EGFR-Fc fusion protein (rhesus) (UniProt P55245); experiment: as above

binding [1]: binds
binding [2]: binds
binding [3]: binds
binding [4]: binds
binding [5]: binds
binding [6]: binds
binding [7]: binds
binding [8]: binds
binding [9]: binds
binding [10]: binds
B1: NRC-sdAb033 (VHH)
VHH: QVQLVESGGGLVQPGGSLRLSCAASESIDSIYVMQWYRQAPEKPRDVVATLTPGGGSYYPEAVLGRFTISRDDAKNTVYLQMNSLKPEDTAVYYCNAFHRLRGTHYWGQGTQVTVSS
notes: Monomeric llama VHH; in ELISA a version with biotin acceptor peptide and 6xHis was used; also called EVE48; not shown: C-terminal c-Myc and 6xHis tags
